Source: PubChem BioAssay AID2685 (National Center for Advancing Translational Sciences (NCATS), 2010)
The list shows a part of the results. Further columns of the screen follow, without active or inactive calls. The list favours compounds with an active or inconclusive main result. Potencies come from curve fits of mixed quality, noted in brackets.

Assay: qHTS Assay for Lipid Storage Modulators in Drosophila S3 Cells;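 for cell number change: cells counted by Cell Tracker Red CMTPX staining in the red channel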
Details: BODIPY lipid droplet fluorescence, 18-24 h; for cell number change: measured here: cell count max response, cells fed with added oleic acid
Method in brief: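 Laser-scanning cytometry quantifies lipid droplet accumulation (500–530 nm total intensity; droplet/cell object ratio) in oleic acid-fed (400 uM added) Drosophila S3 cells treated with a concentration series. 20 uM Triacsin C defined 100% inhibition.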

[1] = measured here: lipid fluorescence (Fed channel) AC50, cells fed with added oleic acid
[2] = measured here: cell number channel AC50, cells fed with added oleic acid

Row | Compound | cell number change [%] | AC50 [1] | AC50 [2]
1 | Cc1cc(-n2[nH]c(C)c(C)c2=O)nc(-c2ccccc2O)n1 | -4.98 | 5.8 µM [rising, full curve, poor fit] | –
2 | CCCNc1c(NC(=O)c2ccc3c(c2)OCO3)c(=O)oc2ccccc12 | 11.2 | 0.82 µM [rising, single point] | –
3 | Cc1ccc(C)c(CSC2=NCCN2C(=O)c2cccs2)c1 | -40.3 | 7.31 µM [falling, partial curve] | 18.4 µM [falling, single point]
4 | O=C(NCC(c1cccs1)N1CCOCC1)c1ccc(Br)o1 (stereo not given) | 57 | 0.517 µM [rising, single point] | 29.1 µM [rising, single point]
5 | Cc1ccc(-c2n[nH]c(=S)nc2-c2ccc(C)cc2)cc1 | – | 20.6 µM [falling, partial curve] | –
6 | Cc1ccc(NC(=O)C2CCCN(c3ncnc4c3nc3n4CCCCC3)C2)nc1 (stereo not given) | -5.73 | 0.651 µM [rising, single point] | 0.231 µM [falling, full curve, poor fit]
7 | Cc1ccc(Cn2c(SCCN3CCOCC3)nc3c2c(=O)n(C)c(=O)n3C)cc1 | -20.1 | 13 µM [rising, partial curve] | –
8 | CCOC(=O)c1c(NC(=O)Cn2nc(C(F)F)cc2C(F)F)sc(C)c1C | 78.5 | – | 18.4 µM [rising, single point]
9 | CN(CC(=O)Nc1cccc(F)c1)C(=O)c1sc2ccccc2c1Cl | -28.3 | 9.2 µM [falling, partial curve, poor fit] | –
10 | Cn1c(SCC(=O)N/N=C/C=C/c2ccccc2[N+](=O)[O-])nc2ccccc21 | -10.4 | 0.731 µM [rising, single point] | –
11 | O=C(c1ccco1)N(Cc1ccco1)c1ccc(O)cc1 | 21.2 | 0.00461 µM [falling, full curve, poor fit] | 0.0517 µM [rising, full curve, poor fit]
12 | O=C(CSc1nnc(CNC(=O)c2ccco2)o1)NC1CCCC1 | -61 | 6.51 µM [falling, single point] | 16.4 µM [falling, single point]
13 | Cc1ccc(-c2nc(CS(=O)(=O)CC(=O)Nc3cc(F)ccc3F)c(C)o2)cc1 | 8.65 | 0.461 µM [rising, partial curve, poor fit] | –
14 | COc1ccccc1NC(=O)Nc1nc(CC(=O)N2CCN(c3ccccc3OC)CC2)cs1 | 50.2 | – | 1.3 µM [rising, full curve]
15 | COCCCNC(=O)c1cccn2c(=O)c3cc4ccccc4cc3nc12 | -22.6 | – | –
16 | CC1CCN(C(=O)CSc2nnc(-c3cccnc3)o2)CC1 | 33.3 | – | –
17 | COC(=O)CCCn1c(C)cc(C(=O)CCl)c1C | -14.4 | 23.1 µM [falling, single point] | 0.461 µM [rising, single point]
18 | COc1ccc(N2CCN(C(=O)C3CCCN(c4ncnc5c4nc4n5CCCCC4)C3)CC2)cc1 (stereo not given) | -4.2 | 6.51 µM [rising, single point] | –

Row | Compound | cell number change [%] | AC50 [1] | AC50 [2]
19 | CC(C)c1ccc(/C=C2\C(=N)N3N=C(CC(=O)N4CCCCC4)SC3=NC2=O)cc1 | -9.13 | 0.206 µM [rising, full curve, poor fit] | –
20 | COc1ccc(CCNC(=O)CSc2nnnn2Cc2ccc3c(c2)OCO3)cc1OC | -17.3 | 13 µM [falling, partial curve] | –
21 | CC(=O)c1cc(CC=C(C)C)c(O)c(CC=C(C)C)c1O | -22.7 | – | 0.103 µM [falling, full curve, poor fit]
22 | CCOc1ccccc1NC(=O)CSc1nc2cccnc2n1C | -13.2 | 0.92 µM [rising, full curve, poor fit] | –
23 | C/C(=N\Nc1ccc([N+](=O)[O-])cc1[N+](=O)[O-])C(C)C(C)C (stereo not given) | -69.8 | 29.1 µM [falling, single point] | 13 µM [falling, partial curve]
24 | COc1ccc(-n2c(=O)cc(N3CCN(c4ccccc4)CC3)[nH]c2=O)cc1 | -38.2 | 0.231 µM [falling, full curve] | 29.1 µM [falling, single point]
25 | COc1ccc(OC)c(NC(=O)CC(NCCC2=CCCCC2)C(=O)O)c1 (stereo not given) | – | 4.11 µM [falling, partial curve] | –
26 | O=c1[nH]c2ccc(Cl)cc2c(-c2ccccc2)c1SC(=S)N1CCOCC1 | -44.9 | 6.51 µM [falling, single point] | 5.8 µM [falling, full curve]
27 | Cc1nn(-c2ccccc2)c(N)c1N=Nc1cccnc1 | 44.6 | – | 11.6 µM [rising, partial curve, poor fit]
28 | CC(C)(C)c1cc(CN2CCCCC2)cc(C(C)(C)C)c1O | 38.1 | – | 11.6 µM [rising, partial curve, poor fit]
29 | CCC(=O)Nc1ccc2nc(C)n(CC(=O)Nc3ccccc3)c(=O)c2c1 | -8.46 | – | –
30 | COc1ccc(C)cc1S(=O)(=O)N1CCN(C(=O)c2ncoc2-c2ccc(F)cc2)CC1 | -1.32 | 3.16 µM [falling, partial curve] | –
31 | COC(=O)CCC(=O)OC1(C)C(=O)C=C2C=C(C3CC3)N(C3CC3)C=C2C1=O (stereo not given) | -2.29 | 0.517 µM [falling, partial curve, poor fit] | –
32 | O=C(CSc1nnc(Cc2ccccc2)o1)Nc1cccc(F)c1 | 23.7 | 29.1 µM [rising, single point] | –
33 | O=C(c1ccc(COc2ccc(Br)cc2)o1)N1N=C(C(F)F)CC1(O)C(F)F (stereo not given) | -70.7 | 20.6 µM [falling, partial curve] | 16.4 µM [falling, partial curve]
34 | Cc1nc(SCn2nnc3ccccc3c2=O)nc(C)c1C | -11.6 | 0.366 µM [rising, full curve] | –
35 | Cc1cccc(Nc2nnc(SC/C(O)=C(\C#N)c3nc4ccccc4[nH]3)s2)c1C | 21.2 | 2.59 µM [rising, full curve] | –

Full records from above:
`COC(=O)CCC(=O)OC1(C)C(=O)C=C2C=C(C3CC3)N(C3CC3)C=C2C1=O` (stereo not given) is listed with cell number change [%]: -2.29; AC50 [1]: 0.517 µM [falling, partial curve, poor fit]
`COc1ccc(CCNC(=O)CSc2nnnn2Cc2ccc3c(c2)OCO3)cc1OC` is listed with cell number change [%]: -17.3; AC50 [1]: 13 µM [falling, partial curve]
